Literature values, collected in patent US11512079B2, “Heterocycle substituted pyridine derivative antifungal agents” (Amplyx Pharmaceuticals, Inc., priority 2017, dated 2022).
Values after ≈ are worked out from the molar mass of the structure shown. At least one compound was matched to its structure with a doubt left.

System: C. neoformans US isolates
Details: cited from earlier work

## CCC(C)n1ncn(-c2ccc(N3CCN(c4ccc(OCC5COC(Cn6cncn6)(c6ccc(Cl)cc6Cl)O5)cc4)CC3)cc2)c1=O (stereo not shown) [itraconazole]
  MIC90 versus C. neoformans, US isolates: 0.125 µg/mL (≈ 0.177 µM)
